Laboratory results: PubChem BioAssay AID743121 (NCATS, 2013)
Aim: 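Partners whose loss is lethal together with topoisomerase I blockade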 (primary screen). Cell system: MDA-MB-231 cells, a human breast cancer line. Reagents: single siRNA against human genes, 20 nM siRNA (0.8 pmol per well). Timing: 120 h (drug added 48 h after transfection, read 72 h later). Conditions: camptothecin 20 nM (about EC30) for 72 h; vehicle 0.1% DMSO in parallel plates. Measurement: 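Cell viability by ATP luminescence (CellTiter-Glo) as % of non-targeting siRNA wells, and the log2 ratio of viability without drug over viability with camptothecin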. Direction: log2 vehicle/camptothecin viability: higher = stronger sensitisation to camptothecin; viability with camptothecin: higher = more viable cells. Call rule: 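Each gene scored by redundant siRNA activity (RSA) over its individual siRNA ratios; a gene is called active at p < 0.001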.
In all, the deposit lists about 26,000 reagents; this is a random part of them. 167 of all reagents (0.63%) were called active. 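Calls are per gene from RSA p-values that are not deposited; an individual active-marked siRNA can sensitise only weakly.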 Reagents against one gene are numbered here. Not all columns of the deposit are shown.

gene symbol,reagent no.,log2 vehicle/camptothecin viability,viability with camptothecin (% of control),Call
PPP1R13B (protein phosphatase 1 regulatory subunit 13B),1,-0.218,84.2,inactive
PPP1R13B (protein phosphatase 1 regulatory subunit 13B),2,0.817,56.3,inactive
PPP1R13B (protein phosphatase 1 regulatory subunit 13B),3,-0.115,105,inactive
PPP1R13B (protein phosphatase 1 regulatory subunit 13B),4,-0.321,39.5,inactive
HSD17B6 (hydroxysteroid 17-beta dehydrogenase 6),1,-0.0457,80.4,inactive
HSD17B6 (hydroxysteroid 17-beta dehydrogenase 6),2,0.602,54.9,inactive
HSD17B6 (hydroxysteroid 17-beta dehydrogenase 6),3,-0.466,47,inactive
HSD17B6 (hydroxysteroid 17-beta dehydrogenase 6),4,-0.237,76.7,inactive
GAMT (guanidinoacetate N-methyltransferase),1,-0.113,100,inactive
GAMT (guanidinoacetate N-methyltransferase),2,-0.0183,103,inactive
GAMT (guanidinoacetate N-methyltransferase),3,-0.204,63.7,inactive
GAMT (guanidinoacetate N-methyltransferase),4,0.088,92.9,inactive
DUSP12 (dual specificity phosphatase 12),1,0.25,65.5,inactive
DUSP12 (dual specificity phosphatase 12),2,-0.523,96.8,inactive
DUSP12 (dual specificity phosphatase 12),3,-0.173,90.9,inactive
DUSP12 (dual specificity phosphatase 12),4,-0.24,97.3,inactive
NAMPT (nicotinamide phosphoribosyltransferase),1,0.862,42.8,inactive
NAMPT (nicotinamide phosphoribosyltransferase),2,-0.126,79.4,inactive
NAMPT (nicotinamide phosphoribosyltransferase),3,-0.121,44.7,inactive
OXSR1 (oxidative stress responsive kinase 1),1,-0.146,66.6,inactive
OXSR1 (oxidative stress responsive kinase 1),2,-0.285,110,inactive
OXSR1 (oxidative stress responsive kinase 1),3,0.0377,60,inactive
OXSR1 (oxidative stress responsive kinase 1),4,0.00274,87.6,inactive
STX7 (syntaxin 7),1,-0.0761,117,inactive
STX7 (syntaxin 7),2,-0.113,97.6,inactive
STX7 (syntaxin 7),3,-0.206,22,inactive
STX7 (syntaxin 7),4,-0.441,43.8,inactive
TAS2R4 (taste 2 receptor member 4),1,-0.3,64.1,inactive
TAS2R4 (taste 2 receptor member 4),2,-0.499,75,inactive
TAS2R4 (taste 2 receptor member 4),3,0.0343,80.1,inactive
TAS2R4 (taste 2 receptor member 4),4,-0.348,42.7,inactive
CALCR (calcitonin receptor),1,-0.0186,94.9,inactive
CALCR (calcitonin receptor),2,-0.108,58.3,inactive
CALCR (calcitonin receptor),3,-0.595,82.8,inactive
CALCR (calcitonin receptor),4,-0.27,86.1,inactive
CNKSR3 (CNKSR family member 3),1,0.0715,49.6,inactive
CNKSR3 (CNKSR family member 3),2,-0.384,86.8,inactive
CNKSR3 (CNKSR family member 3),3,-0.132,111,inactive
CNKSR3 (CNKSR family member 3),4,-0.0935,55.2,inactive
SNX17 (sorting nexin 17),1,-0.493,58.7,inactive
SNX17 (sorting nexin 17),2,-0.37,29.9,inactive
SNX17 (sorting nexin 17),3,-0.0101,99.6,inactive
SNX17 (sorting nexin 17),4,0.105,84.2,inactive
SLC9A7,1,0.0379,103,inactive
SLC9A7,2,0.586,43.2,inactive
SLC9A7,3,-0.0989,97.4,inactive
NKD1 (NKD inhibitor of Wnt signaling pathway 1),1,-0.241,90.6,inactive
NKD1 (NKD inhibitor of Wnt signaling pathway 1),2,-0.341,65.4,inactive
NKD1 (NKD inhibitor of Wnt signaling pathway 1),3,0.127,90.3,inactive
MOB1A (MOB kinase activator 1A),1,-0.0383,106,inactive
MOB1A (MOB kinase activator 1A),2,0.233,83.9,inactive
MOB1A (MOB kinase activator 1A),3,-0.512,68.4,inactive
MOB1A (MOB kinase activator 1A),4,0.0828,74.4,inactive
THPO (thrombopoietin),1,0.0776,82.7,inactive
THPO (thrombopoietin),2,0.115,43.9,inactive
THPO (thrombopoietin),3,-0.433,93.5,inactive
TRIP4 (thyroid hormone receptor interactor 4),1,-0.285,66.9,inactive
TRIP4 (thyroid hormone receptor interactor 4),2,-0.0876,54.7,inactive
TRIP4 (thyroid hormone receptor interactor 4),3,-0.0261,72.9,inactive
TRIP4 (thyroid hormone receptor interactor 4),4,-0.389,106,inactive
SOS1 (SOS Ras/Rac guanine nucleotide exchange factor 1),1,0.147,79.9,inactive
SOS1 (SOS Ras/Rac guanine nucleotide exchange factor 1),2,0.0383,44.9,inactive
SOS1 (SOS Ras/Rac guanine nucleotide exchange factor 1),3,-0.455,91.1,inactive
RXRB (retinoid X receptor beta),1,-0.232,59.9,inactive
RXRB (retinoid X receptor beta),2,-0.117,104,inactive
RXRB (retinoid X receptor beta),3,-0.287,94.3,inactive
RXRB (retinoid X receptor beta),4,0.172,65.9,inactive
ZW10 (zw10 kinetochore protein),1,-0.633,89.8,inactive
ZW10 (zw10 kinetochore protein),2,-0.0871,111,inactive
ZW10 (zw10 kinetochore protein),3,-0.236,52.1,inactive
ZW10 (zw10 kinetochore protein),4,-0.366,63.2,inactive
